Where a protein sequence is shown, tags need not be part of it.

The target in one data set is T1, SbbR-His6 (Streptomyces bingchenggensis BC04) (UniProt D7C006).
T1 sequence (looked up): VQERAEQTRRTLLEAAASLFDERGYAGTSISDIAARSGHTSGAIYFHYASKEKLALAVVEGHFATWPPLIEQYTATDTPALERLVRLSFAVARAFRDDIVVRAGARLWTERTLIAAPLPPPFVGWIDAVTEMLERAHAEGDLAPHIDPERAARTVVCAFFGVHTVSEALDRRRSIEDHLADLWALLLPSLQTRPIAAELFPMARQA
Description: EMSA. The note with it: 0.1-0.2 uM SbbR; EMSA: 20 mM Tris base, 2 mM DTT, 5 mM MgCl2, 0.5 ug calf BSA, 5% glycerol, 20 ul, 10 ng probe, 25 C 25 min (poly[d(I-C)] 500 ng when necessary), pH not stated; recombinant protein; residues 34-239; protein details: C-terminal His6 (pET23b, NdeI/XhoI); probe letters rebuilt from the primers and the genome. (A gel shift assay detects complexes by their altered migration in electrophoresis.)
Turning to “GGCAGGACGGCGTTCTCGCCCGCGCGCAGCAGGCGCCAGAACGCCTCGGGATCGGGTGCGCCGGGCAGCCGGCAGGCCAGCCCCACGATCGCGACGGGAGACGTCGCCTGCTGCGCGTGGCTCGGGCTGCTCCCGGCCATGACACCCCCATACCTGAATCGCAAAACCGCTGGTTATGGCTTACGAGATGCCCCGAACAGCGCTCATTCTCCGAATGATTTCTAAAGTTGATCTAACCGAGAATGTCTAGGGAGCGCCTTGTATACGCCGGGCGAAACTTGCCCCGGTGATCCTTCGGATCGAACTGGTGACCTGGGGGGATCGCTACCGAAACTGCGGGGTACGGCGACGGTCACTGATCGACGAATCCTGATATGTACCCATCTGGTTGTGGGTCTTTTGACCCTCACACTGGCGCGCGCCGCACGGTTAGGATGCGTTGATGTTGCCCTCTCTGCGATCATTGCTGCTGGTTGTTCGCCCAATGGAGGGGACCGCGGCCCGTGGTGCCGAGCGTAGTTCGGCACCATGAGTCGGTGCAGCCGCCGATCGCAGAGCAACGCCGTCGATCTCCATGGCCGGAAGACCACCTCCCACCTGACTGAAAATCTCACTGGGGGCAATGTTGCAGCCGTGTGAAATGCGCGGATGCGGCTGCGATCTGGCTAAGCTGTTGATGGCGTGGGTAGGCAACGACGCTGAGGTCTGAAGCGCGACCAAAAAGGCTTCCAAAATCGGGGTGAATTTTTCGAATGCTGGCTGAATTCGATCAAAATGGAGAGCCCTCCTGGTTCGACAAGACGCTGGCAACGGGGGGAGTTCGCGTATCATGAGGTACGAGATACTGGGCCCGTTGCGCGTGGTTGACCGATCTTCGGTCACCTCAATCAGCGCCCGGAAGATCGAGGTGCTGCTGGCCGCATTACTCGTGCGGGCCGACGAGGTGGTGAGCAGCGAAGA (double strand) [PnanR1R2 (sbi_08420)]”, the binding result was “binds”.
As for “GGTTGTAGTGCCGCTCGTAGGCGGCGAGGACGTGGCGGGCGTGGGCATCGTTCATGATGAGGACGTGGTCGAGGGCTTCGCGGCGGATGCTGCCGATGATGCGTTCGCAGTGCGCGTTCATGCGGGGGGTCCGGGGGAGCGAGATCGCCGCGCTCATTTCAGGGCCCCTCGCCGTAAGGGGCTTGGAGAATGTCTCGGGGTGGTCATGGCGCTGATTGACGGCGCCATGAGTGTAGGGGCTTCATCGATGATGGCCATCTAGTGGTGGACTTCGACCGAGGCAAAAGATCAACGGGGGATTTTTGCAAATCTTTTGCAGTTGTCACTGTTCTGCCCTCTTTGTCATGCCTTCAAGGCTCCCGTAGGGGAATTTTGTGTGCGGTCGGCGAAATGCGGGGGAAAGATTCAGTATGCTCATCGGTAGGGAATTAGAACTCAGTAAATTGAAATCTGCCCTGGCTGAGTCTGCGACGAACAGAGCGAGAACCGTTGTCATCGAAGGCCCGGTCGGCTGTGGGAAGACCGAGCTGCTGGAAACCCTGGCCACCAGTGCCGTGGCCAGTGACGCGTTGGTTCTGAGAGCGACCGCACTGCCCTGGGAGATTTCTCTGCCCCTCGGTGTCATGCGGCAGTTGGTCGACAGCCCGTCGCTGCCCGAGGAATCGGGGCGGCGTCTCCGGGAGCTGCTGGACGAGGACGAGGCGGCCGCCGATCCGGAGTCGGCCGACGTGCTGGCCCCGGTCGGCGCCGCCCGTATGCAGAAGGTCTGCGCGGCTCTGCACGAAGTGGTCCGGGACC (double strand) [Psbi_01376]”, the binding result is recorded as “binds”.
With “TCCAGAGCACCCGTGAAACCATGCGCGACCACGATGGCCGGACCCGGGGCCGGGTCCGTGCCCGACCCCGGTCCATACGGCTGAAACGGCGTGTACGCGGCCTCGATCGCCACCCCGTCGTCCGTCAACAACCTGGTCGGCCGTCCGCGCTCGGTGATCAAGGAAACATGAGGCGGTGCGGATACAGCCTTAATCCCACGTGTCATGTGGGTTATTCTTCTGGGAAGAGGATCCGGGCAAAGCAGCCCCCGGGTCCTTTTGTGCTTTCAGGCGCGTTCCGCGCGTTTGAGCGCACACGCGCTCCAGGGCGCGGAGCCGCAGCCCGGCACAAAGTGGTGCTGAGTCGCGTAAAGCAGTACACACGAAGCAGTGCGCACGAAGTAGTGCGAGTCAGCCAGGTACGAAGCACAGGTACGAAGCAGTAGCCGCATACTCCCCCAGGCCGGGCCTGGGAGGTGCCCCCTCTCGCAGGGACCGAGGAGGAACCGACGTAATGGGCGAGCGAAGCGTGTACGACCATAGGACGACGTCCGGGGCGGGTGATCACCGATGAGCTCCCTCCTCCTGCTGACCAACGCGCTGCAGCCCTCGACGGAGGTGCTTCCCGCGCTCGGGCTGCTGCTGCACGGCGTGCGGGTGGCCCCGGCCGAGGGACCGGCCCTGGTGGACACCCCCGGGGCCGATGTGATCCTCATCGACGGCCGCCGCGATCTGCCCCAGGTGCGC (double strand) [Psbi_05051]”, the binding result is “binds”.
As to “GCGAACGGATCGCCTCCACCAGCACCGGTACATCGGTGCACACCAACTCGACCTCTTCGGCGGGAAGTCGCGTCTGGTCCAGGATCACCAGCACGGGACCTTCCGGCGGTTCCTCCCAGCACAGGGCGAGCGCGGCGGGCGATACGTCGGCGCCCCGGTCCACTGAGTGCTGATCAGCCATTGGTCCAGTCTGCCCTCTGCGGCCCCAAGTATTGAAGGCCCCGGCGTTGGAGGCCCCAAGTATTGAAGCGCCCGCCACGCCCGACGCCCACCGTCCGGCCATGTTCACCGTGGCACGATGACTGCCAACCTGCCGCCGCCGCGCACTCGCGACAGCCCGGCGGCCGCCCTTCGCCCTTATGGGACCGACCTTACGGAGCAACGATGAATGACTCTCCGGGCTGGGCACCGCCCGGACCGTCCCCCACCGACGAACCGCGCCACCACCCCCAGCCGCCAGACGCCCCGGCCGACCAGGCCGCACAGGGCCAGGGCCCTGTCCTGCCCGACCAGCCCGGGCCGGACCGCCCCACGGCGAACAGCCCCACGGCGGAGGGCCCAGCGGCGGATCAGGTGGCGGCGGACCGACCCTCATGGGGCGCGAAGTGGGCGGAGCGGCAACCACCTGCGGGGCACTGGACGGCACACCCCGGCGACGCACCCGCGCCACCACCCGCCCCGCCGACGGGCCCGGCGGGGCCGGGCGGTCCAGCAGGCCCTGCCTCGTACGGAAGTTGGGGGGCCGGCTGGACTCAGCCGCCGCCCGTACCCCGGCCCGGTGTCATCCCGCTACGGCCCCTGAGCGTCGGCGAAATCCTCGACGGGGCGGTGTCCGCCCTGCGCGCCCACTGGCGGCCGGTGCTCGGCGTGTCCCTTGCCGTCGCCCTCGTCACCCATGCCGTGACCACGGCCGCCACGGGACTGTGGTTCCGGGACACGAGCGGGCTCGACTCGCTTGAGAACGACCCGAATCC (double strand) [Psbi_06494/5]”, the binding result was “binds”.
In the case of “TGGCGTGGCGAGATCGATCCGGCCGCGGCCTCCGGGAGGAACGGCTGATAGGTCATGTACGGCTCGGGGTCGACCACGATGACCTGTACGTCGCCTTGCCCCAGCTCCCTCTTCAGCTTCCGCTGGAGGCGCAGCGCGGTGTACATCCCGACGTAGCCACCGCCGACAACGAGAATGCGCGCAGGTTCCTTCACCCTCCCATGAGGCACGCACAGCCGCGGTTTGTCCACAGGCCCGACGAATTGTGTGACCGGCGGTTTCGACGCGCCCCGCCGCGCCCATTCGGTCAAGCGTACGGAAGGTGCGCAGGTCAGTAGGGGGGCGCGGGGTGGTGGGCGGGTGGGGAAGCGCGGACGGGCGGTGCGGTACTCCGAACGGGGGTCGATCTGTCCGGACCTACCCCCTTCTTTCTTGACCGGCGCTCAACTATGTTCGTACTCCGTCGGGGTCGAGACTGCCCCGGCGTTCTGGGCGGGGAGTCTCCGGGGGGAGACGTCATAACCGGGGGATCACTATGCAGCTTCAGGGTTCTCATTGGTCGTCAGCCGTCGCGTCGGCGGACGGTGCCGGCGGCCGGAACACTCCGCTGCGCGTGGACGCGCAGCGCAATCTCGAGCATGTGCTGCGGGCGGCGCGCGAGGTCTTCGGGGAGCTGGGGTACGGCGCTCCCATGGAGGACGTCGCGCGGCGCGCGCGGGTCGGGGTGGGCACCGTCTATCGGCGCTTCCCCAGCAAGGACGTCCTGGTCCGTCGTATAGCCGAGG (double strand) [Psbi_05779]”, the binding result is recorded as “binds”.
With “GCGCCAGGCGAGATGGACGGCGCTGTCGAGCACCGGCCATGCGCCGCTGGCCAAAAGCGCGGCGAATTCGCTCCAGCCGTGATCGTGGAGCGCGTTGTACGTGATGATCGGGGCCACGACGTTGAGGGCGATGGTGACAGCCCAGCCGAGGACGGCGGCGCCCCTGGACCGGGCGGGCGGCACCGGGCGTTCGTCCGGCCGTGCCGGCCGTGTGTCGGGCCGCGCCGGCGGCGTGTTGGGTGCGCCCTGTGCGGTGGTGTCCTGACCAGTCACGGTTCCCCCCGTAAGACGTGCTCGATGGTGCGGGAAGAAGACTAGTACAGGGGGGGACGGGAGCGCGGCGGGCGCCAGTATCGGTTCGCGCTGTCCGGTCCTGCGGCACTTCCCGTCGGCTTTTGTTGAAATTCCCCTCACAGCGCATCCGGCTAATGCGCCAACGTAATCGCTTTGCTTCTTCGGGAAACCCCAGCAAAATGGCGGTCATTGGGCTCATCCTGTAAGGAGCACTGGTTTGCATTTCAGCGTATTGGGTCCGCTTCAGGTGCTTTCACTCGACCGGCCCGTCACCATTGGCGGCCCGAAGCAGCACGTACTGCTCGCGCTGCTGCTCGCTCGTTCCG (double strand) [Psbi_09158]”, the binding result was “binds”.

Still in this data set, the particulars now being: concentration-dependent, not dissociated by 500-fold poly(dI-dC); EMSA: 20 mM Tris base, 2 mM DTT, 5 mM MgCl2, 0.5 ug calf BSA, 5% glycerol, 20 ul, 10 ng probe, 25 C 25 min (poly[d(I-C)] 500 ng when necessary), pH not stated; recombinant protein; residues 34-239; protein details: C-terminal His6 (pET23b, NdeI/XhoI); probe letters rebuilt from the primers and the genome.
As to “TCGCGTAGTGGAAGTAGATGGCGCCGCTGGTGTGGCCGGACCGGGCGGCGATATCGCTGATGCTGGTGCCGGCGTAGCCCCGTTCGTCGAAGAGGGAAGCCGCCGCTTCCAGGAGGGTTCGGCGTGTCTGCTCGGCCCGCTCTTGCACGTGGTGTCCGTCCTCGTTCCGTCGCGTGCGGTGCGTTGTCGGGGTGAACTTAGCGGACTTGTCGCATGTCATGGAGGTGAAGACCCACAGGTCCATCATTACTAGTATTTTATGGCGATCATTGGTGAGGCGTGTGGCGTCCCGGAGCCGTGGGAGCTCGTGGCGCGGCGGCTGAGCTGGTCCCGCACCGTGGCGCGCGAGGCGGTGCACCGCGCCTCGGTGGCCGAAGTGCTGCTCACCGACGTCCGCGCACTGGGTGGCGGCCGGTTCGTGGCCGCGGTGCAGTGGCCACGCTCCCATCCCACGTTCCCGCATG (double strand) [PR-A]”, the binding result is on record as “binds”.

These data come from article PMC5974925.
